The values below come from article PMC6766655, “AhR–ROR-γt complex is a therapeutic target for MAP4K3/GLK^highIL-17A^high subpopulation of systemic lupus erythematosus” (The FASEB Journal, 2019).

By UniProt entry, the sequences of proteins in these tests, tags left out. Where a name states a change or a piece, a line headed by the entry shows the natural chain unless it says otherwise. Chains listed by the source or under a name are the forms on record and can include a tag or linker. Residues count along the entry.
UniProt P35869, residues 11-848: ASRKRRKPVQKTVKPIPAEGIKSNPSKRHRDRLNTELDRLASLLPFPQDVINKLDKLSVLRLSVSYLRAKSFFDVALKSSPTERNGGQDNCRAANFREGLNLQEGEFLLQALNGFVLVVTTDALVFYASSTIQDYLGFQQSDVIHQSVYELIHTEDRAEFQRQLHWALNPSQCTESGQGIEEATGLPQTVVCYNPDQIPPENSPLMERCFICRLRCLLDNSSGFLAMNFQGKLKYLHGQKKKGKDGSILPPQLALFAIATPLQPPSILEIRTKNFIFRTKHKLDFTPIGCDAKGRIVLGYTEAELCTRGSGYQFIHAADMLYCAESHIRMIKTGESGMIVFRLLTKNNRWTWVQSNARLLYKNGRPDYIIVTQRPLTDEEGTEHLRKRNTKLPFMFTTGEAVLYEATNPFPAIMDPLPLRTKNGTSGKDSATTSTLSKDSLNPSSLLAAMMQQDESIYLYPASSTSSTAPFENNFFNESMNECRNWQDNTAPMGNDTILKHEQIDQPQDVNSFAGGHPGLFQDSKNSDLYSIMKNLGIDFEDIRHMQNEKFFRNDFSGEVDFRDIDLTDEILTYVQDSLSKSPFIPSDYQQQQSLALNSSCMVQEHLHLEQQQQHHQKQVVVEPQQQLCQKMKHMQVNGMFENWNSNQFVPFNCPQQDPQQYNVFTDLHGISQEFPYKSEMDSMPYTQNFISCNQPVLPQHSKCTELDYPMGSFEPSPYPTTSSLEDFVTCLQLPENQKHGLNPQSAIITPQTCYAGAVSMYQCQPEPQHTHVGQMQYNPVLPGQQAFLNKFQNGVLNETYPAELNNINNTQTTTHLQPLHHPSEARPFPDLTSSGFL
phosphorylated ROR-γt (Ser-489) (P51449-2, form named): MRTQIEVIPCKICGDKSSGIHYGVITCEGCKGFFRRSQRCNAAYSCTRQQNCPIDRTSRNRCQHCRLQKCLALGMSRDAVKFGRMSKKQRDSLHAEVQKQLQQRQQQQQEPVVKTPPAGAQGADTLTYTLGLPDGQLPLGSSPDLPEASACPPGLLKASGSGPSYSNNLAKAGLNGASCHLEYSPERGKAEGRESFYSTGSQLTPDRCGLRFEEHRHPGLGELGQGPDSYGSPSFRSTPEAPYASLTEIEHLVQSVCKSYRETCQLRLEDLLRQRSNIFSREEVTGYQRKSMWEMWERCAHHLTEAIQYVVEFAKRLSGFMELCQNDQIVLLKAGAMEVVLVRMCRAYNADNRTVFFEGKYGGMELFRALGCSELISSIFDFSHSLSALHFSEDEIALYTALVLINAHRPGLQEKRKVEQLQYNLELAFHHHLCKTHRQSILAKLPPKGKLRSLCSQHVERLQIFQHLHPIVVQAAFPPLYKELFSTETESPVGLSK

For test [1], the target named is aryl hydrocarbon receptor (AhR) (human (endogenous in peripheral blood T cells)) (UniProt P35869). Put plainly: proximity ligation; in situ PLA (Duolink), anti-AhR plus anti-ROR-γt antibodies; unstimulated peripheral blood T cells freshly isolated from healthy controls; confocal microscopy.
For test [2] the target is unchanged. Put plainly: proximity ligation; in situ PLA (Duolink), anti-AhR plus anti-ROR-γt or anti-phosphorylated ROR-γt (Ser-489) antibodies; unstimulated peripheral blood T cells freshly isolated from patients with SLE or RA; confocal microscopy.

These are yes or no findings as the source states them, for the method shown. In cells and extracts the contact can be indirect. Some results given as binding are weak or reduced against the parent protein; the word gives no strength.

Turning to “retinoic acid receptor–related orphan nuclear receptor-γt (ROR-γt) (from UniProt P51449-2 1-497)”, the binding result in test [1] is listed as “no binding (condition: T cells from healthy controls)”; in test [2] it was “binds”.
With “phosphorylated ROR-γt (Ser-489) (from UniProt P51449-2 1-497)”, in test [2], the binding result was “binds”.
